# The supplement of paper PMC8728848
# Some of the results follow.
# B1: AT1G80310(18) (Arabidopsis thaliana), Q0WP36 (protein)
# chain: METTTTPLLPGDRSRCGWLRRRLRLKNPLSSELSGAVGDLGTFIPIVLTLTLVSNLDLSTTLIFTGFYNIATGLLFDIPMPVQPMKSIAAVAVSESPHLTPSQIAAAGASTAATLLLLGATGAMSFLYNIIPLPVVRGVQLSQGLQFAFTAIKYVRFNYDTATLKPSSSPRIWLGLDGLILALAALLFIILSTGSGNDREAEDGDLAETSSNESQSRRRRLRLLSSIPSALIVFALGLVLCFIRDPSIFKDLKFGPSKFHILRISWDDWKIGFLRAAIPQIPLSVLNSVIAVCKLSNDLFDKELSATTVSISVGVMNLIGCWFGAMPVCHGAGGLAGQYRFGARSGLSVIFLGIGKLIVGLVFGNSFVRILSQFPIGILGVLLLFAGIELAMASKDMNSKEDSFIMLVCAAVSMTGSSAALGFGCGVVLYLLLKLRTLDCSSVTLFSRSSDESQVDSEAAPRDV
# Experiments:
# Test in all cases: glycan array binding signal (z-score within array); higher = stronger binding
# Settings in all cases: glycan notation: IUPAC condensed, linker removed
# [1] = molecular target: Gal(a1-3)Gal(b1-4)GlcNAc
# Procedure, shortened: (§1)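 Arrays were curated from the Consortium for Functional Glycomics database, 3228 in total, and kept only where the protein sequence was available. Binding is expressed as a within-array Z-score. This score was averaged across arrays of the same protein sequence at different concentrations or buffers and across linkers, and negative values can be read as non-binding.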
# [2] = molecular target: Gal(a1-3)Gal(b1-4)GlcNAc(b1-2)Man
# Procedure, shortened: as §1
# [3] = molecular target: Gal(a1-3)Gal(b1-4)GlcNAc(b1-2)Man(a1-3)[Gal(a1-3)Gal(b1-4)GlcNAc(b1-2)Man(a1-6)]Man(b1-4)GlcNAc(b1-4)GlcNAc
# Procedure, shortened: as §1
# [4] = molecular target: Gal(a1-3)Gal(b1-4)GlcNAc(b1-3)GalNAc
# Procedure, shortened: as §1
# [5] = molecular target: Gal(a1-3)Gal(b1-4)GlcNAc(b1-6)GalNAc
# Procedure, shortened: as §1
# [6] = molecular target: Gal(a1-3)Gal(b1-4)[Fuc(a1-3)]GlcNAc
# Procedure, shortened: as §1
# [7] = molecular target: Gal(a1-3)Gal(b1-4)[Fuc(a1-3)]GlcNAc(b1-2)Man(a1-3)[Gal(a1-3)Gal(b1-4)[Fuc(a1-3)]GlcNAc(b1-2)Man(a1-6)]Man(b1-4)GlcNAc(b1-4)GlcNAc
# Procedure, shortened: as §1
# [8] = molecular target: Gal(a1-3)GalNAc
# Procedure, shortened: as §1
# [9] = molecular target: Gal(a1-3)[Gal(a1-4)]Gal(b1-4)GlcNAc
# Procedure, shortened: as §1
# [10] = molecular target: Gal(a1-4)Gal(b1-3)GlcNAc(b1-2)Man(a1-3)[Gal(a1-4)Gal(b1-3)GlcNAc(b1-2)Man(a1-6)]Man(b1-4)GlcNAc(b1-4)GlcNAc
# Procedure, shortened: as §1
# [11] = molecular target: Gal(a1-4)Gal(b1-4)Glc
# Procedure, shortened: as §1
# [12] = molecular target: Gal(a1-4)Gal(b1-4)GlcNAc
# Procedure, shortened: as §1
# [13] = molecular target: Gal(a1-4)Gal(b1-4)GlcNAc(b1-2)Man(a1-3)[Gal(a1-4)Gal(b1-4)GlcNAc(b1-2)Man(a1-6)]Man(b1-4)GlcNAc(b1-4)GlcNAc
# Procedure, shortened: as §1
# [14] = molecular target: Gal(a1-4)Gal(b1-4)GlcNAc(b1-3)Gal(b1-4)Glc
# Procedure, shortened: as §1
# [15] = molecular target: Gal(a1-4)GlcNAc
# Procedure, shortened: as §1
# [16] = molecular target: Gal(a1-6)Glc
# Procedure, shortened: as §1
# [17] = molecular target: Gal(b1-2)Gal
# Procedure, shortened: as §1
# [18] = molecular target: Gal(b1-3)Gal
# Procedure, shortened: as §1
# [19] = molecular target: Gal(b1-3)Gal(b1-4)GlcNAc
# Procedure, shortened: as §1
# [20] = molecular target: Gal(b1-3)GalNAc
# Procedure, shortened: as §1
# [21] = molecular target: Gal(b1-3)GalNAc(a1-3)[Fuc(a1-2)]Gal(b1-4)Glc
# Procedure, shortened: as §1
# [22] = molecular target: Gal(b1-3)GalNAc(a1-3)[Fuc(a1-2)]Gal(b1-4)GlcNAc
# Procedure, shortened: as §1
# [23] = molecular target: Gal(b1-3)GalNAc(b1-3)Gal
# Procedure, shortened: as §1
# [24] = molecular target: Gal(b1-3)GalNAc(b1-3)Gal(a1-4)Gal(b1-4)Glc
# Procedure, shortened: as §1
# [25] = molecular target: Gal(b1-3)GalNAc(b1-4)Gal(b1-4)Glc
# Procedure, shortened: as §1
# [26] = molecular target: Gal(b1-3)GalNAc(b1-4)[Neu5Ac(a2-3)]Gal(b1-4)Glc
# Procedure, shortened: as §1
# [27] = molecular target: Gal(b1-3)GlcNAc
# Procedure, shortened: as §1
# [28] = molecular target: Gal(b1-3)GlcNAc(a1-3)Gal(b1-4)GlcNAc
# Procedure, shortened: as §1
# [29] = molecular target: Gal(b1-3)GlcNAc(a1-6)Gal(b1-4)GlcNAc
# Procedure, shortened: as §1
# [30] = molecular target: Gal(b1-3)GlcNAc(b1-2)Man
# Procedure, shortened: as §1
# [31] = molecular target: Gal(b1-3)GlcNAc(b1-2)Man(a1-3)[Gal(b1-3)GlcNAc(b1-2)Man(a1-6)]Man(b1-4)GlcNAc(b1-4)GlcNAc
# Procedure, shortened: as §1
# [32] = molecular target: Gal(b1-3)GlcNAc(b1-2)Man(a1-3)[Gal(b1-3)GlcNAc(b1-2)Man(a1-6)]Man(b1-4)GlcNAc(b1-4)[Fuc(a1-6)]GlcNAc
# Procedure, shortened: as §1
# [33] = molecular target: Gal(b1-3)GlcNAc(b1-2)Man(a1-3)[GlcNAc(b1-4)][Gal(b1-3)GlcNAc(b1-2)Man(a1-6)]Man(b1-4)GlcNAc(b1-4)GlcNAc
# Procedure, shortened: as §1
# [34] = molecular target: Gal(b1-3)GlcNAc(b1-2)[Gal(b1-3)GlcNAc(b1-6)]Man(a1-6)[Gal(b1-3)GlcNAc(b1-2)Man(a1-3)]Man(b1-4)GlcNAc(b1-4)GlcNAc
# Procedure, shortened: as §1
# [35] = molecular target: Gal(b1-3)GlcNAc(b1-3)Gal(b1-3)GlcNAc
# Procedure, shortened: as §1
# [36] = molecular target: Gal(b1-3)GlcNAc(b1-3)Gal(b1-4)Glc
# Procedure, shortened: as §1
# [37] = molecular target: Gal(b1-3)GlcNAc(b1-3)Gal(b1-4)GlcNAc
# Procedure, shortened: as §1
# [38] = molecular target: Gal(b1-3)GlcNAc(b1-3)Gal(b1-4)GlcNAc(b1-2)Man(a1-3)[Gal(b1-3)GlcNAc(b1-3)Gal(b1-4)GlcNAc(b1-2)Man(a1-6)]Man(b1-4)GlcNAc(b1-4)GlcNAc
# Procedure, shortened: as §1
# [39] = molecular target: Gal(b1-3)GlcNAc(b1-3)Gal(b1-4)GlcNAc(b1-2)[Gal(b1-3)GlcNAc(b1-3)Gal(b1-4)GlcNAc(b1-6)]Man(a1-6)[Gal(b1-3)GlcNAc(b1-3)Gal(b1-4)GlcNAc(b1-2)Man(a1-3)]Man(b1-4)GlcNAc(b1-4)[Fuc(a1-6)]GlcNAc
# Procedure, shortened: as §1
# [40] = molecular target: Gal(b1-3)GlcNAc(b1-3)Gal(b1-4)GlcNAc(b1-3)Gal(b1-4)GlcNAc(b1-2)[Gal(b1-3)GlcNAc(b1-3)Gal(b1-4)GlcNAc(b1-3)Gal(b1-4)GlcNAc(b1-6)]Man(a1-6)[Gal(b1-3)GlcNAc(b1-3)Gal(b1-4)GlcNAc(b1-3)Gal(b1-4)GlcNAc(b1-2)Man(a1-3)]Man(b1-4)GlcNAc(b1-4)[Fuc(a1-6)]GlcNAc
# Procedure, shortened: as §1
# [41] = molecular target: Gal(b1-3)GlcNAc(b1-3)Gal(b1-4)GlcNAc(b1-6)[Gal(b1-3)GlcNAc(b1-3)]Gal(b1-4)Glc
# Procedure, shortened: as §1
# [42] = molecular target: Gal(b1-3)GlcNAc(b1-3)Gal(b1-4)[Fuc(a1-3)]GlcNAc
# Procedure, shortened: as §1
# [43] = molecular target: Gal(b1-3)GlcNAc(b1-3)Gal(b1-4)[Fuc(a1-3)]GlcNAc(b1-6)[Gal(b1-3)GlcNAc(b1-3)]Gal(b1-4)Glc
# Procedure, shortened: as §1
# [44] = molecular target: Gal(b1-3)GlcNAc(b1-3)GalNAc
# Procedure, shortened: as §1
# [45] = molecular target: Gal(b1-3)GlcNAc(b1-6)Gal(b1-4)GlcNAc
# Procedure, shortened: as §1
binder,measurement,setting,value
B1,glycan array binding signal (z-score),[1],-0.84
same,glycan array binding signal (z-score),[2],-0.662
same,glycan array binding signal (z-score),[3],-0.855
same,glycan array binding signal (z-score),[4],-0.602
same,glycan array binding signal (z-score),[5],-0.875
same,glycan array binding signal (z-score),[6],-0.389
same,glycan array binding signal (z-score),[7],-0.821
same,glycan array binding signal (z-score),[8],0.265
same,glycan array binding signal (z-score),[9],2.13
same,glycan array binding signal (z-score),[10],2.26
same,glycan array binding signal (z-score),[11],-0.347
same,glycan array binding signal (z-score),[12],-0.164
same,glycan array binding signal (z-score),[13],-0.732
same,glycan array binding signal (z-score),[14],0.169
same,glycan array binding signal (z-score),[15],0.748
same,glycan array binding signal (z-score),[16],-0.24
same,glycan array binding signal (z-score),[17],-0.654
same,glycan array binding signal (z-score),[18],-1
same,glycan array binding signal (z-score),[19],-0.812
same,glycan array binding signal (z-score),[20],-0.301
same,glycan array binding signal (z-score),[21],-0.928
same,glycan array binding signal (z-score),[22],-0.448
same,glycan array binding signal (z-score),[23],-0.806
same,glycan array binding signal (z-score),[24],0.799
same,glycan array binding signal (z-score),[25],-0.444
same,glycan array binding signal (z-score),[26],-0.754
same,glycan array binding signal (z-score),[27],0.056
same,glycan array binding signal (z-score),[28],-0.192
same,glycan array binding signal (z-score),[29],0.216
same,glycan array binding signal (z-score),[30],1.13
same,glycan array binding signal (z-score),[31],-0.886
same,glycan array binding signal (z-score),[32],-0.975
same,glycan array binding signal (z-score),[33],1.46
same,glycan array binding signal (z-score),[34],0.144
same,glycan array binding signal (z-score),[35],0.44
same,glycan array binding signal (z-score),[36],-0.424
same,glycan array binding signal (z-score),[37],-0.236
same,glycan array binding signal (z-score),[38],-0.701
same,glycan array binding signal (z-score),[39],-0.313
same,glycan array binding signal (z-score),[40],0.575
same,glycan array binding signal (z-score),[41],-0.309
same,glycan array binding signal (z-score),[42],1.17
same,glycan array binding signal (z-score),[43],0.457
same,glycan array binding signal (z-score),[44],0.082
same,glycan array binding signal (z-score),[45],-0.386

# Nothing new here: entries from further up.
binder,measurement,setting,value
B1,glycan array binding signal (z-score),[10],2.26
same,glycan array binding signal (z-score),[11],-0.347
same,glycan array binding signal (z-score),[12],-0.164
same,glycan array binding signal (z-score),[13],-0.732
